# Measured values: PubChem BioAssay AID540256 (National Center for Advancing Translational Sciences (NCATS), 2011)
# The whole screen tested about 300,000 compounds, of which about 3,700 (1.2%) were called active. The shares of active, inactive and inconclusive entries below differ from those in the screen. Calls follow the shape of the full dose curve; tested in HEK293 cells. Where the call is inconclusive, the potency comes from a doubtful curve fit.
# Assay: qHTS for Inhibitors of binding or entry into cells for Lassa Virus; also: nearly all actives have a fitted effect of over 50% in size
# Conditions: Lassa virus pseudotype entry inhibition, cell reporter; activity change, negative = inhibition: at 37.9 µM (top of the series) unless noted
# % is scaled to controls: 0 for no effect and ±100 for the full control effect; potency is read from the fitted curve at half-maximal effect.
Compound,"activity change, negative = inhibition",Potency
CCS(=O)(=O)c1nnnn1-c1ccccc1S(C)(=O)=O,inactive: 20.3% [at 14.3 µM],
COc1ccc(CNC(=O)C2CC(c3cccc(OC)c3)=NO2)cc1 (stereo not given),,"inconclusive: 6.51 µM [inhibitor, single point]"
Cc1ccc(CCNC(=O)Cn2nc(-c3ccc(C)cc3)ccc2=O)cc1,,"inconclusive: 6.31 µM [inhibitor, single point]"
Cn1cccc1C(=O)C(=O)Nc1cccc(Cl)c1Cl,,"inconclusive: 35.5 µM [inhibitor, single point]"
CCC(C(=O)NCCc1ccc(SC)cc1)n1nc(C)c2sc3ccccc3c2c1=O (stereo not given),,"inconclusive: 11.2 µM [activator, partial curve, poor fit]"
CCOC(=O)CCC(NC(=O)c1ccc(NCN2C(=O)CCC2=O)cc1)C(=O)OCC (stereo not given),,"inconclusive: 29.1 µM [activator, single point]"
COc1cccc(/C=N/NC(=O)c2cc(-c3cccn3C)n[nH]2)c1O,,active: 2.24 µM
COc1ccccc1N1CCN(C(C)C(=O)Nc2ccc(S(=O)(=O)N3CCOCC3)cc2)CC1 (stereo not given),inactive: -20.7%,
CC1(C)CC(=O)C2=C(C1)N(c1ccccc1C#N)C(N)=C(C#N)C2c1cccs1 (stereo not given),,"inconclusive: 15.8 µM [inhibitor, single point]"
COc1ccc(CSc2ncn[nH]2)cc1[N+](=O)[O-],,"inconclusive: 3.16 µM [activator, single point]"
O=Cc1cn(CC(=O)Nc2ccc(F)cc2)c2ccccc12,,"inconclusive: 5.01 µM [inhibitor, full curve, poor fit]"
O=C(Cn1c(=O)c2cccn2c2ccccc21)Nc1cc(F)ccc1F,,"inconclusive: 6.31 µM [inhibitor, full curve, poor fit]"
CC(NC(=O)CN1C(=O)NC(Cc2ccccc2)(Cc2ccccc2)C1=O)C12CC3CC(CC(C3)C1)C2 (stereo not given),,"inconclusive: 15.8 µM [inhibitor, partial curve, poor fit]"
COc1cc(/C=N\NC(=O)c2ccccc2F)ccc1Oc1ccc([N+](=O)[O-])cn1,inactive: -2.96%,
COc1ccc(S(=O)(=O)NCC2CCC(C(=O)NCCC(C)C)CC2)cc1 (stereo not given),,"inconclusive: 6.31 µM [inhibitor, single point]"
CCCCSCc1[nH]c(=O)[nH]c1C(=O)CCCCC(=O)OCC,,"inconclusive: 4.11 µM [activator, full curve, poor fit]"
COc1cc(Cl)cc(/C=C/c2ccc3ccccc3n2)c1OC(C)=O,,"inconclusive: 23.1 µM [activator, partial curve, poor fit]"
CNC(=O)c1ccccc1NC(=O)c1cccc(S(=O)(=O)N2CCC(C)CC2)c1,,active: 22.4 µM
COc1ccc(N2CCN(C(=O)c3cn(CC(C)C)c(=O)c4c3c3ccccc3n4C)CC2)cc1,,"inconclusive: 15.8 µM [inhibitor, single point]"
O=C(Nc1cccc(S(=O)(=O)NC2=NCCCCC2)c1)c1cc(-c2ccco2)nc2ccccc12,,"inconclusive: 20.6 µM [inhibitor, single point]"
C/C(=N\NC(=S)Nc1cccc(C)c1)c1ccccc1,,"inconclusive: 7.94 µM [inhibitor, partial curve, poor fit]"
O=C(Nc1ccccc1F)c1ccc(OCc2ccccc2)cc1,,"inconclusive: 4.47 µM [activator, partial curve, poor fit]"

# Arranged by molecular weight (largest number first): part of the list above.
Compound,"activity change, negative = inhibition",Potency
O=C(Nc1cccc(S(=O)(=O)NC2=NCCCCC2)c1)c1cc(-c2ccco2)nc2ccccc12,,"inconclusive: 20.6 µM [inhibitor, single point]"
CCCCSCc1[nH]c(=O)[nH]c1C(=O)CCCCC(=O)OCC,,"inconclusive: 4.11 µM [activator, full curve, poor fit]"
Cn1cccc1C(=O)C(=O)Nc1cccc(Cl)c1Cl,,"inconclusive: 35.5 µM [inhibitor, single point]"

# Further entries

Compound,"activity change, negative = inhibition",Potency
CC1CC(CCN)(c2ccccc2)C(C)CN1C (stereo not given),inactive: 5.68%,
Cc1onc(-c2ccccc2)c1C(=O)OCCOc1ccc([N+](=O)[O-])cc1[N+](=O)[O-],,"inconclusive: 14.1 µM [inhibitor, single point]"
CCCCNCCOCCOc1ccc(C)cc1Br,,"inconclusive: 29.1 µM [inhibitor, single point]"
COc1ccc(Cn2c(SCc3ccc(C(=O)NC(C)C)cc3)nc3cccnc32)cc1,inactive: -4.71% [at 46.1 µM],
O=C(N/N=C/c1ccccc1O)C1(O)c2ccccc2-c2ccccc21,inactive: -21.8%,
COc1ccc(NC(C)C(=O)N/N=C/c2c(O)ccc3ccccc23)cc1 (stereo not given),,"inconclusive: 3.55 µM [inhibitor, partial curve, poor fit]"
Cc1ccc(CSCCNC(=O)CN(c2ccccc2)S(C)(=O)=O)cc1,,"inconclusive: 35.5 µM [inhibitor, single point]"
CC(NC(=O)c1ccc2ccccc2n1)c1ccccc1 (stereo not given),,"inconclusive: 2.24 µM [inhibitor, partial curve, poor fit]"
Cc1ccc(C(=O)C[n+]2ccccc2)cc1,,"inconclusive: 17.8 µM [activator, single point]"
O=[N+]([O-])c1ccc(N/N=C\c2cccn2-c2ccccc2)nc1,,"inconclusive: 35.5 µM [inhibitor, single point]"
CCN(CC)Cc1c(O)ccc2cc(-c3nc4ccccc4n3C)c(=O)oc12,inactive: 18.8%,
O=C(c1ccc2c(c1)N(Cc1ccc(F)cc1)C(=O)c1ccccc1S2=O)N1CCC(Cc2ccccc2)CC1 (stereo not given),,"inconclusive: 17.8 µM [inhibitor, partial curve]"
Cc1ccc(S(=O)(=O)Nc2ccc(C(=O)N3CCN(c4ccccc4O)CC3)cc2)cc1[N+](=O)[O-],,"inconclusive: 0.794 µM [activator, full curve, poor fit]"
Cc1c(CCOC(=O)C23CC4CC(CC(C4)C2)C3)sc[n+]1CC#N,,"inconclusive: 35.5 µM [inhibitor, partial curve, poor fit]"
COc1ccc(NS(=O)(=O)c2cccc(NC(=O)CCS(=O)(=O)c3ccccc3)c2)cc1,,"inconclusive: 35.5 µM [inhibitor, single point]"
COc1ccc(-n2cc(-c3ccccc3)c3c(NN4CCOCC4)ncnc32)cc1,,"inconclusive: 14.1 µM [inhibitor, single point]"
CCOc1ccc(OCc2ccc(C(=O)O)o2)cc1,,"inconclusive: 35.5 µM [inhibitor, single point]"
Oc1ccc(Br)cc1/C=N/N1CCCCC1,inactive: 11.2%,
CCOc1ccccc1N1CCN(C(=O)CNC(=O)c2sc3ccccc3c2Cl)CC1,,"inconclusive: 6.31 µM [inhibitor, partial curve]"
CCCCC(CC)CNC(=O)CN1C(=O)CSc2ccc(S(=O)(=O)N3CCOCC3)cc21 (stereo not given),inactive: -15.6% [at 46.1 µM],
O=C(NCCCn1ccnc1)Nc1ccc(Cl)c(Cl)c1,inactive: -0.172%,
COc1cc(-c2csc(NC3CCCCC3)n2)cc(OC)c1OC,,"inconclusive: 11.2 µM [inhibitor, partial curve, poor fit]"

Compound,"activity change, negative = inhibition",Potency
CC1C/C(=N\NC(=S)NCc2ccccc2)CC(C)(C)C1 (stereo not given),,"inconclusive: 16.4 µM [inhibitor, single point]"
Cc1sc2nc3c(C(=O)N4CCCC4)cc(C(=O)c4ccccc4O)cn3c(=O)c2c1C,,"inconclusive: 1.26 µM [inhibitor, single point]"
N#Cc1ccc2c(-c3ccnc(NC4CC4)n3)c(-c3ccc(F)cc3)nn2c1,,"inconclusive: 3.53 µM [inhibitor, partial curve, poor fit]"
CCS(=O)(=O)c1ccc(OC)c(Nc2ncc(-c3ccccc3Cl)o2)c1,,"inconclusive: 22.3 µM [inhibitor, partial curve, poor fit]"
CC(C)CN(C(=O)CCCOc1ccc(Cl)cc1Cl)c1c(N)n(Cc2ccccc2)c(=O)[nH]c1=O,,"inconclusive: 12.6 µM [inhibitor, single point]"
C/C(=C\c1ccccc1)C(=O)n1nnc2ccccc21,,"inconclusive: 1.46 µM [activator, partial curve, poor fit]"
CC(=O)Nc1ccc(S(=O)(=O)c2ccc(C)cc2)cc1,,"inconclusive: 35.5 µM [inhibitor, single point]"
COc1ccc(N(C)C(=O)C2CCN(S(=O)(=O)c3cccc4nonc34)CC2)c(OC)c1,,"inconclusive: 35.5 µM [inhibitor, single point]"
Cc1c(O)c2ccccc2n(-c2ccccc2)c1=O,inconclusive: 22.2% [activator],
COc1ccc2nc(-c3cccc(N)c3)[nH]c2c1,,active: 11.2 µM
COc1ccc(CNC(=O)C(=O)Nc2ccc(OC)cc2OC)cc1,inactive: 0.499% [at 46.1 µM],
Cn1cc(CNC(=O)C2CCC(=O)N(Cc3ccccc3F)C2)cn1 (stereo not given),,"inconclusive: 22.4 µM [activator, partial curve, poor fit]"
O=C(Nc1cnccn1)Nc1ccccc1F,,"inconclusive: 1.41 µM [activator, partial curve, poor fit]"
NS(=O)(=O)c1ccc(NC(=O)COC(=O)c2ccc3c(c2)OCCO3)cc1,,"inconclusive: 35.5 µM [inhibitor, single point]"
O=C1Cc2cc(S(=O)(=O)NCc3ccc(F)cc3)ccc2N1,,"inconclusive: 0.501 µM [inhibitor, single point]"
COc1cccc(/C=C/C(=O)OCC(=O)Nc2ccc(Cl)c(S(=O)(=O)N(C)C)c2)c1,inactive: -2.68%,
CCOC(=O)c1c(C)[nH]c(C)c1C(=O)COC(=O)c1nc2nccc(C)n2n1,,"inconclusive: 0.199 µM [activator, full curve, poor fit]"
Cc1ccc(NC(=O)/C(C#N)=C/c2ccc(C(C)C)cc2)cc1C,inactive: -4.68% [at 46.1 µM],
Nc1cc(S(=O)(=O)Nc2cc(Cl)ccc2Cl)ccc1N1CCOCC1,,"inconclusive: 35.5 µM [inhibitor, single point]"
Cc1cc(C(=O)Nc2ccccc2N2CCOCC2)c2ccccc2n1,,"inconclusive: 1.26 µM [activator, single point]"
COc1ccc(NC(=O)N2CCN(c3ccc([N+](=O)[O-])cc3)CC2)cc1OC,,"inconclusive: 17.8 µM [inhibitor, single point]"
